The record followed here is publication PMC10323252.

No constants are given. Whether binding was seen depends on the method and setting. Binding seen in cells or lysates may run through a third protein. Here binding means that the protein was enriched with, or labelled near, the bait; the list need not be complete. For part of these data: A no says only that the protein was not detected with the bait. Tags and fused reporters may be left off the sequences shown.

Common to all, as to experiment: proximity labelling; BioID: A2780 cells stably expressing mycBirA*-Rab baits (mycBirA* alone as control), 1 uM biotin for 16 h; lysis in 0.4% SDS, 500 mM NaCl buffer; streptavidin microspheres; LC-MS/MS with label-free quantification, four replicates; high-confidence list by SAINTexpress (BFDR<=0.05), longlist by >2-fold enrichment; biotin-modified peptides also scored
Common to all, as to details: remark: other sources report otherwise

One test addresses T1, mycBirA*–Rab25, P57735.
T1 chain: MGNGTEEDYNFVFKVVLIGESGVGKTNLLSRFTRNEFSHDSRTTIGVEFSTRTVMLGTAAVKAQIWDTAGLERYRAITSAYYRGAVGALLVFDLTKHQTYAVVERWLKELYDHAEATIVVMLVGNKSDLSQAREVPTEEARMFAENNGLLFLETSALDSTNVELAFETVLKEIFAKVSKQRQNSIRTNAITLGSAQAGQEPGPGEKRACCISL

The target in a further test is T2, mycBirA*–Rab11a, P62491.
T2 chain: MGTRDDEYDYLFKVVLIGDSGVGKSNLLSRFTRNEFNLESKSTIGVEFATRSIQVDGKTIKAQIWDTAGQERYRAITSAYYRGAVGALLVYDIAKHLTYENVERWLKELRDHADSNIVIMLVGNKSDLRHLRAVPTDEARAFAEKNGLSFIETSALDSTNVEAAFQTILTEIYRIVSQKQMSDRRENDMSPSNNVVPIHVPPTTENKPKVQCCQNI

A further test addresses T3, mycBirA*–Rab4a, P20338.
T3 chain: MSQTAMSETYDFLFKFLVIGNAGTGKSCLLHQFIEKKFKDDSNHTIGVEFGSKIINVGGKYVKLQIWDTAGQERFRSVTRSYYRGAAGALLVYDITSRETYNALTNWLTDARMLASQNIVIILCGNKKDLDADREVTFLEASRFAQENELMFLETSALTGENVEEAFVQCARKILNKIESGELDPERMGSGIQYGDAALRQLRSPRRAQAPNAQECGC

B1: Rab11a (endogenous), P62491 1-216 (protein)
chain: T2 chain
B1: in the test with mycBirA*–Rab25, P57735, the binding result was “no binding”.

B2: SNX6, Q9UNH7 1-406 (protein)
chain: MMEGLDDGPDFLSEEDRGLKAINVDLQSDAALQVDISDALSERDKVKFTVHTKSSLPNFKQNEFSVVRQHEEFIWLHDSFVENEDYAGYIIPPAPPRPDFDASREKLQKLGEGEGSMTKEEFTKMKQELEAEYLAIFKKTVAMHEVFLCRVAAHPILRRDLNFHVFLEYNQDLSVRGKNKKEKLEDFFKNMVKSADGVIVSGVKDVDDFFEHERTFLLEYHNRVKDASAKSDRMTRSHKSAADDYNRIGSSLYALGTQDSTDICKFFLKVSELFDKTRKIEARVSADEDLKLSDLLKYYLRESQAAKDLLYRRSRSLVDYENANKALDKARAKNKDVLQAETSQQLCCQKFEKISESAKQELIDFKTRRVAAFRKNLVELAELELKHAKGNLQLLQNCLAVLNGDT
Turning to B2, the binding result with mycBirA*–Rab11a, P62491 was “binds”; with mycBirA*–Rab4a, P20338 it was “binds”.
